Results are given in words; binding and its absence hold for the method and conditions named. In cells and extracts the contact can be indirect. Some entries that bind do so weakly or less than the wild type.
Target: PRPF8 (mouse (endogenous in testis)) (UniProt Q99PV0)
Test: co-IP; PRPF8 antibody immunoprecipitation from sorted germ cells of control mice (for SLU7 also of Cwf19l2-SKO mice), immunoblotting; IgG as negative control

binding: binds
B1: SLU7 (protein, UniProt Q8BHJ9 1-585)
chain: MSAAAVDPVSATPMTGSKEMSLEEPKKMTREDWRKKKELEEQRKLGNAPAEVDEEGKDINPHIPQYISSVPWYIDPSKRPTLKHQRPQPEKQKQFSSSGEWYKRGVKENSITTKYRKGACENCGAMTHKRKDCFERPRRVGAKFTGTNIAPDEHVQPQLMFDYDGKRDRWNGYNPEEHMKIVEEYAKVDLAKRTLKAQKLQEELASGKLVEQANSPKHQWGEEEPNSQMEKDHNSEDEDEDKYADDIDMPGQNFDSKRRITVRNLRIREDIAKYLRNLDPNSAYYDPKTRAMRENPYANAGKNPDEVSYAGDNFVRYTGDTISMAQTQLFAWEAYDKGSEVHLQADPTKLELLYKSFKVKKEDFKEQQKESILEKYGGQEHLDAPPAELLLAQTEDYVEYSRHGTVIKGQERAVACSKYEEDVKINNHTHIWGSYWKEGRWGYKCCHSFFKYSYCTGEAGKESVNSEECIITGATAEESVKKPQALLELHQEKLKEEKKKKKKKKKHRKSSSDSDDEERKQEKLKKALNAEEARLLHVKEIMQIDERKRPYNSIYETREPTEEEMEAYRMKRQRPDDPMASFLGQ
